Measurements taken from PMC5289615.
These are yes or no findings as the source states them, for the method shown. In cells and extracts the contact can be indirect. Some entries that bind do so weakly or less than the wild type. One block for each binder: values may come before it.

The chains behind the UniProt entries cited, without tags or fusion partners.
UniProt Q27497: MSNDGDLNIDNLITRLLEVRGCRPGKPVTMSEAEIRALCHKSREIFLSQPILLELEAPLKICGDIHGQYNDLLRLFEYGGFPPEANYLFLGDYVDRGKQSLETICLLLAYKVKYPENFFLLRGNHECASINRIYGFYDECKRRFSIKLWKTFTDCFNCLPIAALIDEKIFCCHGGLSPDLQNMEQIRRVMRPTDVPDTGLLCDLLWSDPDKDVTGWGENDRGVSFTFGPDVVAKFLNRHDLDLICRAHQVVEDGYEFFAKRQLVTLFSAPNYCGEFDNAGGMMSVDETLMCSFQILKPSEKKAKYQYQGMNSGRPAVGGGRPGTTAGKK

Experiments:
[1] = target: PP1β^GSP-1 (C. elegans PP1 catalytic subunit, PP1β homolog) (C. elegans (endogenous in N2 worms)) (UniProt Q27497); assay: co-IP; endogenous proteins immunoprecipitated from N2 whole worm extracts (1.6 mg total protein) with 10 ug antibody on Dynabeads Protein A, 4°C; washed in worm lysis buffer (50 mM HEPES pH 7.4, 1 mM EGTA, 1 mM MgCl2, 100 mM KCl, 10% glycerol, 0.05% NP-40); western blot; control IgG
[2] = target: T1, SDS-22 (C. elegans leucine-rich repeat PP1 regulator) (C. elegans (endogenous in N2 worms)) (UniProt P45969); assay: as above
T1 sequence: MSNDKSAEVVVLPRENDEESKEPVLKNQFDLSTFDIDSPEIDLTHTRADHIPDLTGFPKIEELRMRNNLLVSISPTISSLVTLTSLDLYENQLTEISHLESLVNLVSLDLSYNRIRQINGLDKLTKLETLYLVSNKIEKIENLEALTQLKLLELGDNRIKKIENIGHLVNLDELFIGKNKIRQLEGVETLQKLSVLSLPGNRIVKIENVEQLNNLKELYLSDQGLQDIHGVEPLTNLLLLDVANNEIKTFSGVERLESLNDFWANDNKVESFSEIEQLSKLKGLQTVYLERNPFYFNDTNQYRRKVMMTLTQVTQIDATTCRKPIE

- binding [1]: no binding
- binding [2]: no binding
B1: ZYG-1 (C. elegans homolog of Plk4) (enzyme, UniProt Q9GT24 1-706)
chain: MSGGKSGSRLSAYSHLKEIGKGGFGVVYAAQRENGEKVAIKRIDKKVPKNRVWTEIQTMKELKKSKYVVEFYEDFVEDGYTYIVMELCEGGSLQAYVREHGALDDATAVHVLRQLISAVSFMHRVNVIHRDLSAGNVFIKDSKKKKMTVKLGDFGLATTLGRGETTCTIVGTPGFIAPQVYDQEYTQSADVYSLGAVLYTMLTARNPPPKGLPPTCGMSPNAARLVEQMMDTDAKKRIPLTQIVLSEFMYENTNENAVIFSREHSRDGRRQRSREPVRSSRDDRSRDGRALIRSSSQPAHSGRAPLSNRPIHDRMPSTSSRGFDSERGRERDRDSGRGTVPPSREDRNRSQLWPIRMDRLEGQRVCTAGGRYIVELDTRCRFEVAAQGNFVKRILIVEVDEMVQTVYVHRIPDRTVRGRNGEEELITLTNNPFVYTSYSQMPKEVQNDYMRLQKMVAVTISGRVAKVTFRRPSQFPDAQAQLMENGDLRIKLPRSVIVRKMDNGEIFNCIDGIATQKQAVSGITLTKVNEVYKYLIRFEQCLNGMDRGMVCFPIVFSAGTNMVGSSPSSLMPSGSSQTSRFPFSNLSNNQPSLVPHSAPFLTKPTSSQRASSANVQRRVSTDENSSPSVAPSKYKIKIDPTTQKVRSIQATDGRVLRCSTSKADQFIFTDPAIRPDDQRFMRTDRVPDRASEMLHTLCERMRKLHQ

- binding [1]: binds
B2: SDS-22 (C. elegans leucine-rich repeat PP1 regulator) (protein, UniProt P45969 1-326)
chain: T1 sequence
